Results as given in patent US20160050923A1, “N-SUBSTITUTED ACYL-IMINO-PYRIDINE COMPOUNDS AND DERIVATIVES FOR COMBATING ANIMAL PESTS” (BASF SE, priority 2013, published 2016).
Some entries share one result that the patent states for a list of compounds.

Key:
Format in all cases: in vivo
Megoura viciae = assay: Vetch aphid (Megoura viciae) broad bean leaf disk microtiter test; settings: 2500 ppm; Megoura viciae on broad bean leaf disks; 5 days
Protocol: B.2 Vetch Aphid (Megoura viciae)
For evaluating control of vetch aphid (Megoura viciae) through contact or systemic means the test unit consisted of 24-well-microtiter plates containing broad bean leaf disks.
The compounds were formulated using a solution containing 75% v/v water and 25% v/v DMSO. Different concentrations of formulated compounds were sprayed onto the leaf disks at 2.5 μl, using a custom built micro atomizer, at two replications.
After application, the leaf disks were air-dried and 5-8 adult aphids were placed on the leaf disks inside the microtiter plate wells. The aphids were then allowed to suck on the treated leaf disks and were incubated at about 23±1° C. and about 50±5% relative humidity for 5 days. Aphid mortality and fecundity was then visually assessed.

Nephotettix virescens = assay: Rice green leafhopper (Nephotettix virescens) test on sprayed rice seedlings; settings: 500 ppm; Nephotettix virescens adults on rice seedlings; after 72 hours
Protocol: B.7 Rice Green Leafhopper (Nephotettix virescens)
(§1) Rice seedlings were cleaned and washed 24 hours before spraying. The active compounds were formulated in 50:50 acetone:water (vol:vol), and 0.1% vol/vol surfactant (EL 620) was added. Potted rice seedlings were sprayed with 5 ml test solution, air dried, placed in cages and inoculated with 10 adults. Treated rice plants were kept at about 28-29° C. and relative humidity of about 50-60%. Percent mortality was recorded after 72 hours.

Aphis craccivora = assay: Cowpea aphid (Aphis craccivora) spray test on potted cowpea plants; settings: 500 ppm, after 72 hours
Protocol: B.4 Cowpea Aphid (Aphis craccivora)
The active compound was dissolved at the desired concentration in a mixture of 1:1 (vol:vol) distilled water: acetone. Surfactant (Alkamuls® EL 620) was added at a rate of 0.1% (vol/vol). The test solution was prepared at the day of use.
Potted cowpea plants were colonized with approximately 50-100 aphids of various stages by manually transferring a leaf tissue cut from infested plant 24 hours before application. Plants were sprayed after the pest population has been recorded. Treated plants were maintained on light carts at about 28° C. Percent mortality was assessed after 72 hours.

Nilaparvata lugens = assay: Rice brown plant hopper (Nilaparvata lugens) test on sprayed rice seedlings; settings: 500 ppm; Nilaparvata lugens adults on rice seedlings; after 72 hours
Protocol: B.8 Rice Brown Plant Hopper (Nilaparvata lugens)
as §1, with “compounds was” for “compounds were”, “acetone:water (vol:vol)” for “acetone:water (vol:vol),”

Myzus persicae = assay: Green peach aphid (Myzus persicae) spray test on infested bell pepper plants; settings: 2500 ppm, after 5 days
Protocol: B.1 Green Peach Aphid (Myzus persicae)
The active compounds were formulated by a Tecan liquid handler in 100% cyclohexanone as a 10,000 ppm solution supplied in tubes. The 10,000 ppm solution was serially diluted in 100% cyclohexanone to make interim solutions. These served as stock solutions for which final dilutions were made by the Tecan in 50% acetone:50% water (v/v) into 5 or 10 ml glass vials. A nonionic surfactant (Kinetic®) was included in the solution at a volume of 0.01% (v/v). The vials were then inserted into an automated electrostatic sprayer equipped with an atomizing nozzle for application to plants/insects.
Bell pepper plants at the first true-leaf stage were infested prior to treatment by placing heavily infested leaves from the main colony on top of the treatment plants. Aphids were allowed to transfer overnight to accomplish an infestation of 30-50 aphids per plant and the host leaves were removed. The infested plants were then sprayed by an automated electrostatic plant sprayer equipped with an atomizing spray nozzle. The plants were dried in the sprayer fume hood, removed, and then maintained in a growth room under fluorescent lighting in a 24-hr photoperiod at about 25° C. and about 20-40% relative humidity. Aphid mortality on the treated plants, relative to mortality on untreated control plants, was determined after 5 days.

Ceratitis capitata = assay: Mediterranean fruitfly (Ceratitis capitata) insect diet microtiter test; settings: 2500 ppm; Ceratitis capitata egg and larval mortality; 5 days
Bemisia argentifolii = assay: Silverleaf whitefly (Bemisia argentifolii) test on sprayed cotton plants; settings: 500 ppm; Bemisia argentifolii adults on cotton; 3 days after treatment
Heliothis virescens = assay: Tobacco budworm (Heliothis virescens) insect diet microtiter test; settings: 2500 ppm; Heliothis virescens egg and larval mortality; 5 days

Measured: mortality in comparison with untreated controls

O=C(CSC(F)(F)C(F)F)N=c1ccccn1Cc1ccc(Cl)nc1 [E2-3]
not listed: Bemisia argentifolii | Heliothis virescens
at least 75%: all other assays above

CSC(F)(F)C(=O)N=c1ccccn1Cc1cc(C)no1 [E2-143]
at least 75%: Bemisia argentifolii

O=C(N=c1ccccn1Cc1ccc(Cl)nc1)C(F)(F)[S+]([O-])c1cc(C(F)(F)F)cc(C(F)(F)F)c1 (stereo not drawn) [E2-193]
at least 75%: Heliothis virescens | Myzus persicae
